The record followed here is paper PMC11162808.

Results are given in words; binding and its absence hold for the method and conditions named. In cells and extracts the contact can be indirect. Some entries that bind do so weakly or less than the wild type.

This assay addresses AT-rich interaction domain protein 1A (ARID1A) (human (endogenous in the paper's human cell lines; the line used for the IP is not stated)), O14497. Nature of the assay: co-IP; IP with anti-ARID1A (anti-IgG as control) from benzonase-treated nuclear lysate, protein A/G magnetic beads, beads boiled in Laemmli buffer and loaded on an SDS gel; cells without and with DNA damage. The note with it: remark: other sources report otherwise.

B1: SCC1/RAD21, O60216 1-631 (protein)
chain: MFYAHFVLSKRGPLAKIWLAAHWDKKLTKAHVFECNLESSVESIISPKVKMALRTSGHLLLGVVRIYHRKAKYLLADCNEAFIKIKMAFRPGVVDLPEENREAAYNAITLPEEFHDFDQPLPDLDDIDVAQQFSLNQSRVEEITMREEVGNISILQENDFGDFGMDDREIMREGSAFEDDDMLVSTTTSNLLLESEQSTSNLNEKINHLEYEDQYKDDNFGEGNDGGILDDKLISNNDGGIFDDPPALSEAGVMLPEQPAHDDMDEDDNVSMGGPDSPDSVDPVEPMPTMTDQTTLVPNEEEAFALEPIDITVKETKAKRKRKLIVDSVKELDSKTIRAQLSDYSDIVTTLDLAPPTKKLMMWKETGGVEKLFSLPAQPLWNNRLLKLFTRCLTPLVPEDLRKRRKGGEADNLDEFLKEFENPEVPREDQQQQHQQRDVIDEPIIEEPSRLQESVMEASRTNIDESAMPPPPPQGVKRKAGQIDPEPVMPPQQVEQMEIPPVELPPEEPPNICQLIPELELLPEKEKEKEKEKEDDEEEEDEDASGGDQDQEERRWNKRTQQMLHGLQRALAKTGAESISLLELCRNTNRKQAAAKFYSFLVLKKQQAIELTQEEPYSDIIATPGPRFHII
On to B1, for which the binding entry is “binds”.
